Data set [1] in a line: general procedure: Fmoc solid-phase peptide synthesis; Rink Amide MBHA resin (Novabiochem), 0.66 mmol/g; HBTU/HOBT, DIEA. The following applies: whole synthesis; for final HPLC purity: analytical HPLC.
Another data set can be described thus: peptide synthesis. To be noted: whole synthesis.
Where [2] appears, read: scale of the general procedure 0.1 mmol.

For the substance “((3-(2,4-dihydroxyphenyl)-propionyl)^7)hGLP-1(7-36)NH2”, the “final HPLC purity” value in data set [1] (setting [2]) is reported as 98.6%.

On to “((3-(2-hydroxyphenyl)-propionyl)^7)hGLP-1(7-36)NH2”, for which, in data set [1] (setting [2]), the “final HPLC purity” value stood at 98.0%. With “((3-(3-hydroxyphenyl)-propionyl)^7)hGLP-1(7-36)NH2”, the “final HPLC purity” value in data set [1] (setting [2]) is given as 99.0%.

Take “((3-(4-aminophenyl)-propionyl)^7)hGLP-1(7-36)NH2”: the “final HPLC purity” value in data set [1] (setting [2]) is on record as 99.0%.

For the substance “((3-chloro-4-hydroxyphenyl-acetyl)^7)hGLP-1(7-36)NH2”, in data set [1] (setting [2]), the “final HPLC purity” value is reported as 97.2%. Consider “((3-fluoro-4-hydroxyphenyl-acetyl)^7)hGLP-1(7-36)NH2”, for which the “final HPLC purity” value in data set [1] (setting [2]) amounted to 95.1%. Further, in data set [1] (scale 0.1 mmol), the isolated mass was 5.6 mg and the isolated yield is given as 1.7%. With “((4-aminophenyl-acetyl)^7)hGLP-1(7-36)NH2”, the “final HPLC purity” value in data set [1] (setting [2]) is given as 99.0%. Same read-out and setting: the result for “(Aib^8,35,37, Arg^26,34, Ava^38)hGLP-1(7-38)NH2” reads 96.7%; that for “(Aib^8,35,37, Arg^26,34, D-His^38)hGLP-1(7-38)NH2”, 99.9%. Regarding “(Aib^8,35,37, Arg^26,34, Gaba^38)hGLP-1(7-38)NH2”, the “final HPLC purity” value in the data set “peptide synthesis” amounted to 99.9%. Regarding “(Aib^8,35,37, Arg^26,34, Gly^38)hGLP-1(7-38)NH2”, the “final HPLC purity” value in data set [1] (setting [2]) is 97.4%.

With “(Aib^8,35,37, Arg^26,34, His^38)hGLP-1(7-38)NH2”, the “final HPLC purity” value in data set [1] (setting [2]) is reported as 97.0%. As to “(Aib^8,35,37, Arg^26,34, Phe^31, Asn^38)hGLP-1(7-38)-NH2”, the “final HPLC purity” value in data set [1] (setting [2]) is reported as 99.0%. The same measure, in the same setting: the result for “(Aib^8,35,37, Arg^26,34, Phe^31, Ava^38)hGLP-1(7-38)NH2” reads 99.1%; that for “(Aib^8,35,37, Arg^26,34, Phe^31, D-His^38)hGLP-1(7-38)NH2”, 98.6%. Take “(Aib^8,35,37, Arg^26,34, Phe^31, Gaba^38)hGLP-1(7-38)NH2”: the “final HPLC purity” value in the data set “peptide synthesis” amounted to 99.9%.

Turning to “(Aib^8,35,37, Arg^26,34, Phe^31, Gly^38)hGLP-1(7-38)NH2”, the “final HPLC purity” value in data set [1] (setting [2]) was 99.9%.

For “(Aib^8,35,37, Arg^26,34, Phe^31, His^38)hGLP-1(7-38)NH2”, in data set [1] (setting [2]), the “final HPLC purity” value amounted to 99.9%. Same read-out and setting: the result for “(Aib^8,35,37, Arg^26,34, Phe^31, Ser^38)hGLP-1(7-38)NH2” reads 97.5%. In the case of “(Aib^8,35,37, Arg^26,34, Phe^31, β-Ala^38)hGLP-1(7-38)NH2”, the “final HPLC purity” value in data set [1] (setting [2]) is 99.9%.

On to “(Aib^8,35,37, Arg^34, Phe^31, D-His^38)hGLP-1(7-38)NH2”, for which the “final HPLC purity” value in data set [1] (setting [2]) was 99.9%.

“(Aib^8,35,37, Arg^34, Phe^31, Gaba^38)hGLP-1(7-38)NH2”: in “peptide synthesis”, the “final HPLC purity” value came to 96.8%. Consider “(Aib^8,35,37, Arg^34, Phe^31, Gly^38)hGLP-1(7-38)NH2”, for which the “final HPLC purity” value in data set [1] (setting [2]) was 99.9%.

As to “(Aib^8,35,37, Arg^34, Phe^31, His^38)hGLP-1(7-38)NH2”, the “final HPLC purity” value in data set [1] (setting [2]) is 99.9%.

Consider “(Aib^8,35,37, Arg^34, Phe^31, β-Ala^38)hGLP-1(7-38)NH2”, for which, in data set [1] (setting [2]), the “final HPLC purity” value is reported as 99.9%. Consider (Aib^8,35,37, Gaba^38)hGLP-1(7-38)NH2, for which the “final HPLC purity” value in the data set “peptide synthesis” is on record as 97.7%. For the substance (Aib^8,35,37, Gly^38)hGLP-1(7-38)NH2, the “final HPLC purity” value in data set [1] (setting [2]) was 95.8%. Take (Aib^8,35,37, β-Ala^38)hGLP-1(7-38)NH2: the “final HPLC purity” value in data set [1] (setting [2]) turned out to be 99.9%. On to “(Aib^8,35, Arg^26,34, Phe^31, Pro^37, Ser^38,39)hGLP-1(7-39)-NH2”, for which, in data set [1] (setting [2]), the “final HPLC purity” value is given as 95.0% and the isolated yield is recorded as 7.9%. Consider “(Aib^8,35, Arg^26,34, Phe^31, β-Ala^37,38)hGLP-1(7-38)NH2”, for which the “final HPLC purity” value in data set [1] (setting [2]) is on record as 99.9%. For “(Aib^8,35, Arg^26,34, Phe^31, β-Ala^37, D-His^38)hGLP-1(7-38)NH2”, in data set [1] (setting [2]), the “final HPLC purity” value was found to be 99.9%.

As to “(Aib^8,35, Arg^26,34, Phe^31, β-Ala^37, His^38)hGLP-1(7-38)NH2”, in data set [1] (setting [2]), the “final HPLC purity” value amounted to 99.9%. For “(Aib^8,35, Arg^26,34, β-Ala^37, His^38)hGLP-1(7-38)NH2”, the “final HPLC purity” value in data set [1] (setting [2]) worked out at 99.3%.
